PubChem BioAssay AID743121, NCATS, 2013
Test: 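Genes whose silencing strengthens cell killing by camptothecin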 (primary screen). Cell system: MDA-MB-231 cells, a human breast cancer line. Reagents: single siRNA against human genes, 20 nM siRNA (0.8 pmol per well). Time to read-out: 120 h (drug added 48 h after transfection, read 72 h later). Challenge: camptothecin 20 nM (about EC30) for 72 h; vehicle 0.1% DMSO in parallel plates. Measurement: 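CellTiter-Glo ATP signal, scaled to control siRNA as percent viability; sensitisation given as log2 of untreated divided by camptothecin-treated viability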. Reading the numbers: log2 vehicle/camptothecin viability: higher = stronger sensitisation to camptothecin. Rule for the call: 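Active genes have an RSA gene-level p-value below 0.001, computed from the ratios of their separate siRNAs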.
In all, the deposit lists about 26,000 reagents; this is an unselected part. 167 of them (0.63%) were called active. 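Calls are per gene from RSA p-values that are not deposited; an individual active-marked siRNA can sensitise only weakly.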 Entries without a mark were called inactive. The numbers tell different reagents against one gene apart. Further read-outs or replicates are left out here.

CYP26C1 (cytochrome P450 family 26 subfamily C member 1) #1: log2 vehicle/camptothecin viability = -0.252
CYP26C1 (cytochrome P450 family 26 subfamily C member 1) #2: log2 vehicle/camptothecin viability = 0.00187
CYP26C1 (cytochrome P450 family 26 subfamily C member 1) #3: log2 vehicle/camptothecin viability = -0.264
CYP26C1 (cytochrome P450 family 26 subfamily C member 1) #4: log2 vehicle/camptothecin viability = -0.42
TWIST1 (twist family bHLH transcription factor 1) #1: log2 vehicle/camptothecin viability = -0.0117
TWIST1 (twist family bHLH transcription factor 1) #2: log2 vehicle/camptothecin viability = 0.323
TWIST1 (twist family bHLH transcription factor 1) #3: log2 vehicle/camptothecin viability = 0.082
TWIST1 (twist family bHLH transcription factor 1) #4: log2 vehicle/camptothecin viability = 0.751
RNF20 (ring finger protein 20) #1: log2 vehicle/camptothecin viability = -0.0429
RNF20 (ring finger protein 20) #2: log2 vehicle/camptothecin viability = -0.344
RNF20 (ring finger protein 20) #3: log2 vehicle/camptothecin viability = 0.394
RNF20 (ring finger protein 20) #4: log2 vehicle/camptothecin viability = -0.235
SERPINB8 (serpin family B member 8) #1: log2 vehicle/camptothecin viability = -0.0586
SERPINB8 (serpin family B member 8) #2: log2 vehicle/camptothecin viability = -0.75
SERPINB8 (serpin family B member 8) #3: log2 vehicle/camptothecin viability = -0.113
SERPINB8 (serpin family B member 8) #4: log2 vehicle/camptothecin viability = 0.199
HGFAC (HGF activator) #1: log2 vehicle/camptothecin viability = -0.381
HGFAC (HGF activator) #2: log2 vehicle/camptothecin viability = -0.466
HGFAC (HGF activator) #3: log2 vehicle/camptothecin viability = -0.203
HGFAC (HGF activator) #4: log2 vehicle/camptothecin viability = 0.0566
MAGI2 #1: log2 vehicle/camptothecin viability = 0.277
MAGI2 #2: log2 vehicle/camptothecin viability = -0.402
MAGI2 #3: log2 vehicle/camptothecin viability = -0.425
MAGI2 #4: log2 vehicle/camptothecin viability = -0.404
MAGI2 #5: log2 vehicle/camptothecin viability = -0.313
MAGI2 #6: log2 vehicle/camptothecin viability = -0.409
CCL2 (C-C motif chemokine ligand 2) #1: log2 vehicle/camptothecin viability = -0.498
CCL2 (C-C motif chemokine ligand 2) #2: log2 vehicle/camptothecin viability = 0.442
CCL2 (C-C motif chemokine ligand 2) #3: log2 vehicle/camptothecin viability = 0.0812
CCL2 (C-C motif chemokine ligand 2) #4: log2 vehicle/camptothecin viability = 0.0178
RNF14 (ring finger protein 14) #1: log2 vehicle/camptothecin viability = -0.161
RNF14 (ring finger protein 14) #2: log2 vehicle/camptothecin viability = -0.2
RNF14 (ring finger protein 14) #3: log2 vehicle/camptothecin viability = -0.128
RNF14 (ring finger protein 14) #4: log2 vehicle/camptothecin viability = -0.221
GPR156 (G protein-coupled receptor 156) #1: log2 vehicle/camptothecin viability = -0.595
GPR156 (G protein-coupled receptor 156) #2: log2 vehicle/camptothecin viability = -0.286
GPR156 (G protein-coupled receptor 156) #3: log2 vehicle/camptothecin viability = -0.448
GPR156 (G protein-coupled receptor 156) #4: log2 vehicle/camptothecin viability = -0.241
LPAR2 (lysophosphatidic acid receptor 2) #1: log2 vehicle/camptothecin viability = -0.386
LPAR2 (lysophosphatidic acid receptor 2) #2: log2 vehicle/camptothecin viability = -0.00977
LPAR2 (lysophosphatidic acid receptor 2) #3: log2 vehicle/camptothecin viability = -0.088
LPAR2 (lysophosphatidic acid receptor 2) #4: log2 vehicle/camptothecin viability = -0.323
TRIM11 (tripartite motif containing 11) #1: log2 vehicle/camptothecin viability = -0.212
TRIM11 (tripartite motif containing 11) #2: log2 vehicle/camptothecin viability = 0.718
TRIM11 (tripartite motif containing 11) #3: log2 vehicle/camptothecin viability = -0.509
TRIM11 (tripartite motif containing 11) #4: log2 vehicle/camptothecin viability = 0.238

Reformatted: entries from further up.
{"gene":"TWIST1 (twist family bHLH transcription factor 1)","reagent":3,"log2 vehicle/camptothecin viability":0.082}
{"gene":"TWIST1 (twist family bHLH transcription factor 1)","reagent":4,"log2 vehicle/camptothecin viability":0.751}
{"gene":"RNF20 (ring finger protein 20)","reagent":1,"log2 vehicle/camptothecin viability":-0.0429}
{"gene":"RNF20 (ring finger protein 20)","reagent":2,"log2 vehicle/camptothecin viability":-0.344}
{"gene":"RNF20 (ring finger protein 20)","reagent":3,"log2 vehicle/camptothecin viability":0.394}
{"gene":"RNF20 (ring finger protein 20)","reagent":4,"log2 vehicle/camptothecin viability":-0.235}
{"gene":"SERPINB8 (serpin family B member 8)","reagent":1,"log2 vehicle/camptothecin viability":-0.0586}
